No constants are given. Whether binding was seen depends on the method and setting. Binding seen in cells or lysates may run through a third protein. A result given as binding can be weak or reduced; the word gives no strength.
Target: LDL receptor-related protein 1 (LRP1) (mouse (endogenous in peritoneal macrophages))
Test: co-IP; WT mouse peritoneal macrophage lysates incubated with antibody (anti-SR-BI, anti-Src or anti-LRP1), then protein A/G magnetic beads; precipitated partner detected by Western blotting

B1: engulfment adaptor PTB domain (GULP) (protein, UniProt Q8K2A1 1-304)
chain: MNRAFSRKKDKTWMHTPEALSKHYIPYNAKFLGSTEVEQPKGTEVVRDAVRKLKFARHIKKSEGQKIPKVELQISIYGVKILEPKTKEVQHNCQLHRISFCADDKTDKRIFTFICKDSESNKHLCFVFDSEKCAEEITLTIGQAFDLAYRKFLESGGKDVETRKQIAGMQKRIQDLETENMELKNKVQDLESRLRTTQVSTSPAHGVTVMSPSTDIFDMIPFSPISHQSPTSARNGTQLPPIPSRSAETKRDLFGAEPFDPFNCGSGDFPPDIQSKLDEMQEGFKMGLTLEGTVFCLDPLDSRC
  binding: binds

From article PMC4513986
